# Laboratory results as given in publication PMC7819943, “Rice protein-binding microarrays: a tool to detect cis-acting elements near promoter regions in rice”.
# The list shows a part of the results.
# Biological target: T1, OsSMF1 (Oryza sativa, UniProt Q6ZLB0 1-436)
# T1 sequence: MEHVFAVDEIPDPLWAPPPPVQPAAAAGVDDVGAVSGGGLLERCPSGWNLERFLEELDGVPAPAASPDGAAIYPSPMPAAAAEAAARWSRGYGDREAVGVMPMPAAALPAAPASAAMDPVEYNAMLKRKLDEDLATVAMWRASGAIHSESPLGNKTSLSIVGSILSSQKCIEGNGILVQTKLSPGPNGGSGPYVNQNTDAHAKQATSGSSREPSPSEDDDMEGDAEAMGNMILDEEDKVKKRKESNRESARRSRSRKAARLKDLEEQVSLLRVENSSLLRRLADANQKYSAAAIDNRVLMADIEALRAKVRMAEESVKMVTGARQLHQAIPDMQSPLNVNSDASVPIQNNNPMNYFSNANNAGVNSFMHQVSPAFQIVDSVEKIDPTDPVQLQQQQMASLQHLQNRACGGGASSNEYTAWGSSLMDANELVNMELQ
# Experiment: protein-binding microarray (RPBM); PBS, 2% BSA, 51.3 ng/ul salmon testes DNA, 50 uM zinc acetate, 200 nM TF, 25 C, 1 h; high values mean tight binding
# Details: protein: recombinant; tags: N-terminal polyhistidine and DsRed monomer fusion (pET32a); chain copies: 2; label: CyDye5-dUTP incorporated in the synthesized complementary strand; 3' TTTTT single-stranded linker to array surface; dsDNA, one strand shown
# How it was run: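 The binding signal is fluorescence intensity per feature, in arbitrary units, read on an Axon 4000B scanner. Polyhistidine- and DsRed-tagged transcription factors (N-terminal fusions) from E. coli BL21-CodonPlus were purified on Ni–NTA and applied at 200 nM for 1 h at 25 °C to a double-stranded, BSA-blocked custom Agilent array in buffer with 50 µM zinc acetate.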
row,Sequence,binding signal
1,ACCTGGACACGTCGACACGATCACATGGTCCATCATCCTGCGGAGTCACCTAGTGCAG,14000 fluorescence intensity (a.u.)
2,GTAGGGTCCACGTGGGGCCCTACACTGACTCAGCCACCACCGGAGTCACCTAGTGCAG,16400 fluorescence intensity (a.u.)
3,CCATCCAGTTTAACTAGCATGTACAAAATTACGTGGAGAACGGAGTCACCTAGTGCAG,6760 fluorescence intensity (a.u.)
4,AACGGGGAGAGCCCAGCTGACGTGGCGTCATACAGCCACTCGGAGTCACCTAGTGCAG,17800 fluorescence intensity (a.u.)
5,GAGTTACCACGAGATGACACGTAGGATAAAGAGCTTTGAACGGAGTCACCTAGTGCAG,8600 fluorescence intensity (a.u.)
6,ATTCGACGAGATTTTCTGGTGACTTGGCTTCACGTGCTCCCGGAGTCACCTAGTGCAG,6960 fluorescence intensity (a.u.)
7,ACGGATTCCTGTTAATAGAGTGTTTCCGTAATATGTGGCACGGAGTCACCTAGTGCAG,3820 fluorescence intensity (a.u.)
8,CAACAAGGCATTTAGCACCGAAGTCCTACGTGCCAACGTGCGGAGTCACCTAGTGCAG,4150 fluorescence intensity (a.u.)
9,CCTCCACGAGTCAAACCCAGCCACCATCGGAATTCGAGGGCGGAGTCACCTAGTGCAG,28600 fluorescence intensity (a.u.)
10,CTAGCTATTGCTACAGCACATCTTCGATATCATGACCTAACGGAGTCACCTAGTGCAG,32300 fluorescence intensity (a.u.)
11,TCCTTTCCAAGTTCTATTTGGACTGAGACTGTTACGTGGGCGGAGTCACCTAGTGCAG,3730 fluorescence intensity (a.u.)
12,ATTTCTGAGCGTGACACCGATGACATCACTAAAAGAAACTCGGAGTCACCTAGTGCAG,5480 fluorescence intensity (a.u.)
13,GACCCACCTGGAAGCCTCTCTGAGTCACTTCTTCTCTGTCCGGAGTCACCTAGTGCAG,8360 fluorescence intensity (a.u.)
14,TCCACGTAGACTCCACCTATCAGGATGCTACGTCATCTCTCGGAGTCACCTAGTGCAG,20200 fluorescence intensity (a.u.)
15,AAACATCACATGCGACACCTTATATAATACCCGATATGACCGGAGTCACCTAGTGCAG,3620 fluorescence intensity (a.u.)
16,TGAGAGTAGTCACCATCTCAATTAGACCTTTTGGTGCTAGCGGAGTCACCTAGTGCAG,3710 fluorescence intensity (a.u.)
17,ATGCCTCACCGGTGACGGCATCCCGTATAACCCGTCAAAGCGGAGTCACCTAGTGCAG,3820 fluorescence intensity (a.u.)
18,CCCGAGGCGCAATATAATTGTTCCACGTTACACAGTATATCGGAGTCACCTAGTGCAG,3290 fluorescence intensity (a.u.)
19,TAGTAGTAGAATACACACACGCACATTGCCTGTGTTGTTACGGAGTCACCTAGTGCAG,3280 fluorescence intensity (a.u.)
20,AATGGCAGCTACCTCAGCCGTGCTTGCACTTTGGGCAAAACGGAGTCACCTAGTGCAG,18000 fluorescence intensity (a.u.)
21,GATTGGTAGTATTTAGTTGTGTATAATGTATTATTAGGTTCGGAGTCACCTAGTGCAG,3720 fluorescence intensity (a.u.)

# A second format for some results above:
row | Sequence | binding signal
1 | ACCTGGACACGTCGACACGATCACATGGTCCATCATCCTGCGGAGTCACCTAGTGCAG | 14000 fluorescence intensity (a.u.)
4 | AACGGGGAGAGCCCAGCTGACGTGGCGTCATACAGCCACTCGGAGTCACCTAGTGCAG | 17800 fluorescence intensity (a.u.)
15 | AAACATCACATGCGACACCTTATATAATACCCGATATGACCGGAGTCACCTAGTGCAG | 3620 fluorescence intensity (a.u.)

# (list continues)

row,Sequence,binding signal
1,GATGCCGTGTCACCCACCGCCTCCTCCTCTCCCGCCTCGCCGGAGTCACCTAGTGCAG,8060 fluorescence intensity (a.u.)
2,ATATGTACTTTTGGAATCTCCTATCATGTGCTGCAGCCTCCGGAGTCACCTAGTGCAG,20900 fluorescence intensity (a.u.)
3,CATTTATGAATCCTTCACATCTCTTCTGGATTGCTCTCTCCGGAGTCACCTAGTGCAG,22800 fluorescence intensity (a.u.)
4,GCTCCTCCCCTGCTAGTCAGCCAACAACATTCGATCTTGGCGGAGTCACCTAGTGCAG,3610 fluorescence intensity (a.u.)
5,ATACGCGTACGCCGTGCATACGTGTCGGCGTGTATATATCCGGAGTCACCTAGTGCAG,33300 fluorescence intensity (a.u.)
6,GACAGGCAGGCCAGAGCGGCGTGAGTGAGCTATACAGGAACGGAGTCACCTAGTGCAG,18300 fluorescence intensity (a.u.)
7,TATATTTGTCACGTAAGCTCCACATCAGTGCCACATGTGACGGAGTCACCTAGTGCAG,16800 fluorescence intensity (a.u.)
8,CTGTATCAGATGATCTGGAAGTTTGCTTCCATCATTCAATCGGAGTCACCTAGTGCAG,3670 fluorescence intensity (a.u.)
9,TGCATTTGCCTTATAGAGTTGTTTCCCTTTTGCAACAATGCGGAGTCACCTAGTGCAG,25500 fluorescence intensity (a.u.)
10,GCACCGTACTGTGCACGTCATCCATTTGTCTGTTTGTGTTCGGAGTCACCTAGTGCAG,10000 fluorescence intensity (a.u.)
11,CTGTGGTGGACTTCATTGTGATATACCATGTTTGAGGGTTCGGAGTCACCTAGTGCAG,3140 fluorescence intensity (a.u.)
12,CTCCATCTCGCAGTCGCAGTGCCAGCTAAGGCCTTGTACACGGAGTCACCTAGTGCAG,3240 fluorescence intensity (a.u.)
13,CCACTTGGCCCCACCCCACCGGGCGCGTGGCACGAATCTCCGGAGTCACCTAGTGCAG,3600 fluorescence intensity (a.u.)
14,ACCGACACGCCATGCATGACGGTTGCAGTGCAGGCTCCACCGGAGTCACCTAGTGCAG,3240 fluorescence intensity (a.u.)
15,TCTGTTCGGCTGCCCGCGCTGCCAGCACGAACAGTGCTGCCGGAGTCACCTAGTGCAG,4090 fluorescence intensity (a.u.)
16,CTTTATGAGAATGTTAATGCAATTTCTTGGATGCTTAGTGCGGAGTCACCTAGTGCAG,12900 fluorescence intensity (a.u.)
17,TCTTCGTCGACACCACCCCAGCCAGTGACTCCACATGCTCCGGAGTCACCTAGTGCAG,3320 fluorescence intensity (a.u.)
18,GCCTTTGTGCGCCTTTCTTATGTGTCAAGCCCAAATGCCCCGGAGTCACCTAGTGCAG,4700 fluorescence intensity (a.u.)
19,AGAGGAGAAGAGATCCAGGGAAGGGAGAGAAACTGTGTGTCGGAGTCACCTAGTGCAG,20500 fluorescence intensity (a.u.)
20,CCCAAAGACAAAACCCACGAAACGTGTCGTGTCGCCCATCCGGAGTCACCTAGTGCAG,3900 fluorescence intensity (a.u.)
21,AGGAGGTGAGTGGCTGATCTCCTATTCATAATTGATCATGCGGAGTCACCTAGTGCAG,3270 fluorescence intensity (a.u.)
